This is an account of results in article PMC4403260.

Protein sequences, listed by entry. Tags and fused reporters are not part of them. Lines headed by an entry give the natural chain unless they say otherwise; changes in a name come on top.
UniProt Q00416: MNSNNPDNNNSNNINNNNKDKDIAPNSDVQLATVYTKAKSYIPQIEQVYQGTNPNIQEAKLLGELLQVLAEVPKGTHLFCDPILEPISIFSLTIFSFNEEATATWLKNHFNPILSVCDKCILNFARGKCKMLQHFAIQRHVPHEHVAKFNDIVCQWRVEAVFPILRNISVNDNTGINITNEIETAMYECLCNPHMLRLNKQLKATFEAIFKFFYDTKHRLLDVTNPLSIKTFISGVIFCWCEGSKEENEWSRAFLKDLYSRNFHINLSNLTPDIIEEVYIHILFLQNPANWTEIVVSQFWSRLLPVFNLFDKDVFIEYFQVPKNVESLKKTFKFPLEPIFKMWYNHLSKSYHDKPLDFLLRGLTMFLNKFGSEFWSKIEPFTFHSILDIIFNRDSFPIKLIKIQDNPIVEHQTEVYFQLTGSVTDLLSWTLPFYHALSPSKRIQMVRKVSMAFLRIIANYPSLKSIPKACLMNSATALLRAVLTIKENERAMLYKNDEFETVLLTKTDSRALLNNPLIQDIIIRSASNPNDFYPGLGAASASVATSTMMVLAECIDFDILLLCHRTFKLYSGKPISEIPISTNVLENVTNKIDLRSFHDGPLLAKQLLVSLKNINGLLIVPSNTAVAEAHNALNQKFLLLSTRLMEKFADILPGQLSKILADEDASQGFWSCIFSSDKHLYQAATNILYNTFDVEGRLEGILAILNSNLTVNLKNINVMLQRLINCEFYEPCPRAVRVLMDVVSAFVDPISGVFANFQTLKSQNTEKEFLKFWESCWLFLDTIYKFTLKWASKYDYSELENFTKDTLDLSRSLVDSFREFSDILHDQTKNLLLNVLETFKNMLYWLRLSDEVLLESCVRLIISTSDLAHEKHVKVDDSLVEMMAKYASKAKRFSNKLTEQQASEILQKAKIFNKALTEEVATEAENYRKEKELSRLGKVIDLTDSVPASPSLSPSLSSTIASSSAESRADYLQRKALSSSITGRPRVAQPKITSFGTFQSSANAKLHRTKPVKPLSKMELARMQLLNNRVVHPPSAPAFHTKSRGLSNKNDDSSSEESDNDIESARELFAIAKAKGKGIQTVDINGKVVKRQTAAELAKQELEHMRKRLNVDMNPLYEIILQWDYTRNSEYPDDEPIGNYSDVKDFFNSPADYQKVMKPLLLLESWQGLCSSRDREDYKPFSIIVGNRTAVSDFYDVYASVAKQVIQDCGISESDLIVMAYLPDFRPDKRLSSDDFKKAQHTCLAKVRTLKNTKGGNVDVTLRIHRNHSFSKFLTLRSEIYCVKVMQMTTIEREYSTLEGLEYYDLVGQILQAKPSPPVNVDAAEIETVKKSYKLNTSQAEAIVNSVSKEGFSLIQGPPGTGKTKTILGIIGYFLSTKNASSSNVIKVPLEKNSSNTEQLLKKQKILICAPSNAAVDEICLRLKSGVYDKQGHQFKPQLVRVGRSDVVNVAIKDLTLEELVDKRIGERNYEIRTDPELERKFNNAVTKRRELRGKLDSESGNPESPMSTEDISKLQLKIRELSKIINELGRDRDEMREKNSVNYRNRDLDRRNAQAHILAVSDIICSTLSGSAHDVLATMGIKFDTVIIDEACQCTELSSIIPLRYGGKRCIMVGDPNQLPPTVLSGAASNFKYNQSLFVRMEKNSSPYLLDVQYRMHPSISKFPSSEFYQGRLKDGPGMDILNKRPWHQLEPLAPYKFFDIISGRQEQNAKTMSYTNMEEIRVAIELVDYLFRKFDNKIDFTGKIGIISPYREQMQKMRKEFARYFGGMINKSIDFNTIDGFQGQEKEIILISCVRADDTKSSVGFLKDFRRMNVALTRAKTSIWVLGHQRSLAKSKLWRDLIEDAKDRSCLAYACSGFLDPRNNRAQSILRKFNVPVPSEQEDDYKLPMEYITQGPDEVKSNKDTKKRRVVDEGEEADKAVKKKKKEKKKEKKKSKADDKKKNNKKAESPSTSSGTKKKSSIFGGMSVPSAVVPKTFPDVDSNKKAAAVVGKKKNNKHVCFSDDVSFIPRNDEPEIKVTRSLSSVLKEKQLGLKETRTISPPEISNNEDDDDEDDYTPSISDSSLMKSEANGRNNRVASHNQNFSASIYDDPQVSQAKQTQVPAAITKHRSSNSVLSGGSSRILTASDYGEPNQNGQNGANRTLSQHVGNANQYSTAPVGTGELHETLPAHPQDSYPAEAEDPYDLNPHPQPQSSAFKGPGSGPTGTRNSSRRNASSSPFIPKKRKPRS

Test [1] deals with T1, Nrd1-TAP (S. cerevisiae) (UniProt P53617).
T1 sequence: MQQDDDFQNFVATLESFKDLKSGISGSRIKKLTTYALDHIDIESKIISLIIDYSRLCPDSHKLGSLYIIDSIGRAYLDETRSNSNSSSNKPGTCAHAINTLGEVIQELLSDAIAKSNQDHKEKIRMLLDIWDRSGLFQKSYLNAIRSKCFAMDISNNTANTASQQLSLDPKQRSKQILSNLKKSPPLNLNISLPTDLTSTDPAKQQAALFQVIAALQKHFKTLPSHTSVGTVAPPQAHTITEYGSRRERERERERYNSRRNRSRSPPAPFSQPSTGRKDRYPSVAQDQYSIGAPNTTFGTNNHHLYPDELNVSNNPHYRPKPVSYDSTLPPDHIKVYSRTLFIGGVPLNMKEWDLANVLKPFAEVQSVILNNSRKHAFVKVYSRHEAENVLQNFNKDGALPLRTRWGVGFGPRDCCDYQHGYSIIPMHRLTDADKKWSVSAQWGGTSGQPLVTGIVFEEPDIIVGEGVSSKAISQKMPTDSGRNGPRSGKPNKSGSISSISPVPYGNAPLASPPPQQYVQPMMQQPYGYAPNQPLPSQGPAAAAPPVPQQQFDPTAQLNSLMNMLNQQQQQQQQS
Description: co-IP; fractions coprecipitated with Nrd1-TAP from protein extracts of wild type and pcf11-9 yeast; Western blot with PAP, anti-Nab3 and anti-HA antibodies.

Test [2] has as its target Sen1-R302W-myc (S. cerevisiae) (UniProt Q00416). Nature of the test: co-IP; Sen1-R302W-myc precipitated with anti-myc antibody from protein extracts of wild type and pcf11-13 yeast; extracts incubated 2 h at 4°C with protein A and G magnetic beads; Western blot with anti-CTD CMA601 and anti-Nab3 antibodies.

Results are given in words; binding and its absence hold for the method and conditions named. Binding seen in cells or lysates may run through a third protein. Some binding calls cover weakened binding; strength is not graded here.

On to Sen1-HA (from UniProt Q00416 1-2231), for which, in test [1], the binding entry is given as “binds”.

B1: Nab3 (protein, UniProt P38996 1-802)
chain: MSDENHNSDVQDIPSPELSVDSNSNENELMNNSSADDGIEFDAPEEEREAEREEENEEQHELEDVNDEEEEDKEEKGEENGEVINTEEEEEEEHQQKGGNDDDDDDNEEEEEEEEDDDDDDDDDDDDEEEEEEEEEEGNDNSSVGSDSAAEDGEDEEDKKDKTKDKEVELRRETLEKEQKDVDEAIKKITREENDNTHFPTNMENVNYDLLQKQVKYIMDSNMLNLPQFQHLPQEEKMSAILAMLNSNSDTALSVPPHDSTISTTASASATSGARSNDQRKPPLSDAQRRMRFPRADLSKPITEEEHDRYAAYLHGENKITEMHNIPPKSRLFIGNLPLKNVSKEDLFRIFSPYGHIMQINIKNAFGFIQFDNPQSVRDAIECESQEMNFGKKLILEVSSSNARPQFDHGDHGTNSSSTFISSAKRPFQTESGDMYNDDNGAGYKKSRRHTVSCNIFVKRTADRTYAIEVFNRFRDGTGLETDMIFLKPRMELGKLINDAAYNGVWGVVLVNKTHNVDVQTFYKGSQGETKFDEYISISADDAVAIFNNIKNNRNNSRPTDYRAMSHQQNIYGAPPLPVPNGPAVGPPPQTNYYQGYSMPPPQQQQQQPYGNYGMPPPSHDQGYGSQPPIPMNQSYGRYQTSIPPPPPQQQIPQGYGRYQAGPPPQPPSQTPMDQQQLLSAIQNLPPNVVSNLLSMAQQQQQQPHAQQQLVGLIQSMQGQAPQQQQQQLGGYSSMNSSSPPPMSTNYNGQNISAKPSAPPMSHQPPPPQQQQQQQQQQQQQQQQPAGNNVQSLLDSLAKLQK
For B1, the binding entry in test [1] and in test [2] was “binds” throughout.
